Experimental data taken from PubChem BioAssay AID248 (DTP/NCI, 2004).
The list shows only some results of the screen, not a fair sample: it is rich in T/C values a quarter to a half above the control, in often repeated tests (any T/C) and in doses without a T/C. Further doses and runs are listed elsewhere. T/C is the treated group as % of the vehicle group. Some entries give survivors of the animals treated and no T/C: the source files T/C as zero there, which appears to mark a toxic dose or a test without result, not a measured value. Some doses without a T/C left all or most animals alive at the check, yet need not have been tolerated: the source hardly ever lists a survival T/C far under the control, and the zero likely stands for such cases as well. Survivors were counted at the toxicity check, usually on the fifth day, unless a day is given; later deaths do not show. Schedules are NCI's codes, taken here to give the interval after Q, in days (D) or hours (H), and the number of doses after X. Some schedules carry Z or #; the key to these is not given. Where survival is the endpoint, this PubChem deposit counts one and a half times the control or more as active, and values a quarter to a half above the control carry no call in these data; other NCI protocols may use other cut-offs. Some entries hold several experiments; their values stand side by side, smallest first.

Tested on: L1210 leukemia ip in BDF1 mice, survival T/C
Assay: NCI In Vivo Anticancer Drug Screen. Data for tumor model L1210 Leukemia (intraperitoneal) in B6D2F1 (BDF1) mice
Details: higher T/C = longer survival
[1] = T/C endpoint: mean survival time, dose: 200.0 mg/kg/injection, schedule: Q01DX009 (ip), vehicle: saline with Tween-80
[2] = T/C endpoint: mean survival time, dose: 100.0 mg/kg/injection, schedule: Q04DX003 (ip), vehicle: saline
[3] = T/C endpoint: mean survival time, dose: 200.0 mg/kg/injection, schedule: Q04DX003 (ip), vehicle: saline
[4] = T/C endpoint: mean survival time, dose: 400.0 mg/kg/injection, schedule: Q04DX003 (ip), vehicle: saline
[5] = T/C endpoint: mean survival time, dose: 400.0 mg/kg/injection, schedule: Q04DX003 (ip), vehicle: saline with Tween-80

## S=P(N1CCOCC1)(N1CC1)N1CC1
T/C endpoint: mean survival time, dose: 10.0 mg/kg/injection, schedule: Q#A X Z (ip), vehicle: saline
  T/C: 136 % of control
T/C endpoint: mean survival time, dose: 17.5 mg/kg/injection, schedule: Q07DX003 (ip), vehicle: saline
  T/C: 140 % of control
T/C endpoint: mean survival time, dose: 18.0 mg/kg/injection, schedule: Q01DX003 (ip), vehicle: saline
  T/C: 149 % of control
T/C endpoint: mean survival time, dose: 20.0 mg/kg/injection, schedule: Q01DX006 (iv), vehicle: saline
  T/C: 136 % of control
T/C endpoint: mean survival time, dose: 20.0 mg/kg/injection, schedule: Q01DX Z (sc), vehicle: saline
  T/C: 142 % of control
T/C endpoint: mean survival time, dose: 20.0 mg/kg/injection, schedule: Q#A X Z (ip), vehicle: saline
  T/C: 146 % of control
T/C endpoint: mean survival time, dose: 26.0 mg/kg/injection, schedule: Q01DX003 (ip), vehicle: saline
  T/C: 139 % of control
T/C endpoint: mean survival time, dose: 35.0 mg/kg/injection, schedule: Q01DX001 (ip), vehicle: saline
  T/C: 135 % of control
T/C endpoint: mean survival time, dose: 35.0 mg/kg/injection, schedule: Q07DX003 (ip), vehicle: saline
  T/C: 130 % of control
T/C endpoint: mean survival time, dose: 40.0 mg/kg/injection, schedule: Q01DX006 (iv), vehicle: saline
  T/C: 145 % of control
T/C endpoint: mean survival time, dose: 40.0 mg/kg/injection, schedule: Q01DX010 (ip), vehicle: saline
  survivor count: 6 of 6
T/C endpoint: mean survival time, dose: 40.0 mg/kg/injection, schedule: Q01DX Z (oral), vehicle: saline
  T/C: 126 % of control
T/C endpoint: mean survival time, dose: 40.0 mg/kg/injection, schedule: Q01DX Z (sc), vehicle: saline
  T/C: 130 % of control
T/C endpoint: mean survival time, dose: 60.0 mg/kg/injection, schedule: Q03DX006 (ip), vehicle: saline
  T/C: 126 % of control
T/C endpoint: mean survival time, dose: 80.0 mg/kg/injection, schedule: Q01DX Z (sc), vehicle: saline
  survivor count: 5 of 6
T/C endpoint: mean survival time, dose: 80.0 mg/kg/injection, schedule: Q#A X Z (ip), vehicle: saline
  survivor count: 3 of 6
T/C endpoint: mean survival time, dose: 120.0 mg/kg/injection, schedule: Q03DX006 (ip), vehicle: saline
  survivor count: 1 of 6
T/C endpoint: mean survival time, dose: 140.0 mg/kg/injection, schedule: Q01DX001 (ip), vehicle: saline
  survivor count: 2 of 6
T/C endpoint: mean survival time, dose: 140.0 mg/kg/injection, schedule: Q07DX003 (ip), vehicle: saline
  survivor count: 1 of 6
T/C endpoint: mean survival time, dose: 160.0 mg/kg/injection, schedule: Q01DX006 (iv), vehicle: saline
  survivor count: 4 of 6
T/C endpoint: mean survival time, dose: 160.0 mg/kg/injection, schedule: Q01DX Z (oral), vehicle: saline
  survivor count: 3 of 6
T/C endpoint: mean survival time, dose: 160.0 mg/kg/injection, schedule: Q01DX Z (sc), vehicle: saline
  survivor count: 6 of 6
T/C endpoint: mean survival time, dose: 160.0 mg/kg/injection, schedule: Q#A X Z (ip), vehicle: saline
  survivor count: 0 of 6
T/C endpoint: mean survival time, dose: 280.0 mg/kg/injection, schedule: Q01DX001 (ip), vehicle: saline
  survivor count: 1 of 6
T/C endpoint: mean survival time, dose: 280.0 mg/kg/injection, schedule: Q07DX003 (ip), vehicle: saline
  survivor count: 3 of 6
T/C endpoint: median survival time, dose: 40.0 mg/kg/injection, schedule: Q01DX009 (ip), vehicle: saline
  T/C: 131 % of control

## CCOC(=O)CC(C)=O.[Cu+2]
T/C endpoint: mean survival time, dose: 35.0 mg/kg/injection, schedule: Q01DX009 (ip), vehicle: Klucel (hydroxypropylcellulose) (HPC)
  survivor count: 2 of 6
T/C endpoint: mean survival time, dose: 50.0 mg/kg/injection, schedule: Q04DX003 (ip), vehicle: Klucel (hydroxypropylcellulose) (HPC)
  survivor count: 2 of 6
T/C endpoint: mean survival time, dose: 55.0 mg/kg/injection, schedule: Q01DX009 (ip), vehicle: Klucel (hydroxypropylcellulose) (HPC)
  survivor count: 0 of 6
T/C endpoint: mean survival time, dose: 80.0 mg/kg/injection, schedule: Q01DX009 (ip), vehicle: Klucel (hydroxypropylcellulose) (HPC)
  survivor count: 0 of 6

## CC[CH2][Sn]([CH2]CC)([CH2]CCC#N)[O]C(C)=O
T/C endpoint: mean survival time, dose: 6.25 mg/kg/injection, schedule: Q01DX009 (ip), vehicle: saline with Tween-80
  survivor count: 0 of 3
T/C endpoint: mean survival time, dose: 12.5 mg/kg/injection, schedule: Q01DX009 (ip), vehicle: saline with Tween-80
  survivor count: 0 of 3
T/C endpoint: mean survival time, dose: 25.0 mg/kg/injection, schedule: Q01DX009 (ip), vehicle: saline with Tween-80
  survivor count: 0 of 3
T/C endpoint: mean survival time, dose: 50.0 mg/kg/injection, schedule: Q01DX009 (ip), vehicle: saline with Tween-80
  survivor count: 1 of 3
T/C endpoint: mean survival time, dose: 100.0 mg/kg/injection, schedule: Q01DX009 (ip), vehicle: saline with Tween-80
  survivor count: 0 of 3
[1]
  survivor count: 0 of 3

## CCOC(=O)CCC(N)C(=O)OCC (stereo not given)
T/C endpoint: mean survival time, dose: 200.0 mg/kg/injection, schedule: Q01DX001 (ip), vehicle: saline
  survivor count: 4 of 4
T/C endpoint: mean survival time, dose: 400.0 mg/kg/injection, schedule: Q01DX009 (ip), vehicle: saline
  survivor count: 2 of 6

## CN(C)N=Nc1c[nH]c(=O)[nH]c1=O
T/C endpoint: mean survival time, dose: 75.0 mg/kg/injection, schedule: Q01DX001 (ip), vehicle: saline
  survivor count: 0 of 6
T/C endpoint: mean survival time, dose: 150.0 mg/kg/injection, schedule: Q01DX001 (ip), vehicle: saline
  survivor count: 0 of 6
T/C endpoint: mean survival time, dose: 300.0 mg/kg/injection, schedule: Q01DX001 (ip), vehicle: saline
  survivor count: 0 of 6

## NCCCNCCNCCCN
[2]
  survivor count: 3 of 3
[3]
  survivor count: 3 of 3
T/C endpoint: mean survival time, dose: 400.0 mg/kg/injection, schedule: Q04DX002 (ip), vehicle: saline
  survivor count: 0 of 3
[4]
  survivor count: 1 of 3

## CCCN(CCC)/N=N/c1nc[nH]c1C(N)=O
T/C endpoint: mean survival time, dose: 400.0 mg/kg/injection, schedule: Q01DX009 (ip), vehicle: saline with Tween-80
  survivor count: 6 of 6

## CSc1ncnc2c1cnn2C1OC(CCC#N)C(O)C1O (stereo not given)
T/C endpoint: mean survival time, dose: 400.0 mg/kg/injection, schedule: Q01DX001 (ip), vehicle: saline
  survivor count: 2 of 6

## NC(=O)c1[nH]cnc1/N=N/N(CCCl)Cc1ccccc1
T/C endpoint: mean survival time, dose: 200.0 mg/kg/injection, schedule: Q01DX001 (ip), vehicle: Klucel (hydroxypropylcellulose) (HPC)
  T/C: 140 % of control
T/C endpoint: mean survival time, dose: 266.0 mg/kg/injection, schedule: Q01DX001 (ip), vehicle: Klucel (hydroxypropylcellulose) (HPC)
  T/C: 139 % of control

## CC1(C)N=C(N)N=C(N)N1NC(=O)c1cccc(Cl)c1
[4]
  survivor count: 5 of 6

## CC(C)([NH-])CO.CC(C)([NH-])CO.[Cl][Cd][Cl]
T/C endpoint: mean survival time, dose: 20.0 mg/kg/injection, schedule: Q01DX009 (ip), vehicle: saline
  survivor count: 1 of 6
T/C endpoint: mean survival time, dose: 25.0 mg/kg/injection, schedule: Q04DX003 (ip), vehicle: saline sonified
  survivor count: 0 of 6
T/C endpoint: mean survival time, dose: 40.0 mg/kg/injection, schedule: Q04DX003 (ip), vehicle: alcohol
  survivor count: 1 of 6
[2]
  survivor count: 0 of 6
[3]
  survivor count: 0 of 6
[4]
  survivor count: 0 of 6

## CC[n+]1ccc(Nc2ccc(NC(=O)c3ccc(C(=O)Nc4ccc(Nc5cc[n+](CC)c(N)n5)cc4)cc3)cc2)nc1N
T/C endpoint: mean survival time, dose: 67.0 mg/kg/injection, schedule: Q01DX001 (ip), vehicle: saline
  T/C: 144 % of control
T/C endpoint: mean survival time, dose: 200.0 mg/kg/injection, schedule: Q01DX009 (ip), vehicle: saline
  survivor count: 2 of 6
T/C endpoint: mean survival time, dose: 300.0 mg/kg/injection, schedule: Q01DX009 (ip), vehicle: saline
  survivor count: 0 of 6
T/C endpoint: mean survival time, dose: 450.0 mg/kg/injection, schedule: Q01DX009 (ip), vehicle: saline
  survivor count: 0 of 6

## NOc1ccc([N+](=O)[O-])cc1[N+](=O)[O-]
T/C endpoint: mean survival time, dose: 200.0 mg/kg/injection, schedule: Q04DX003 (ip), vehicle: saline with Tween-80
  survivor count: 0 of 6
[5]
  survivor count: 0 of 6

## N#CSc1c[nH]c2ccccc12
[1]
  survivor count: 4 of 6
[5]
  survivor count: 0 of 6

## CC(=O)CC(=O)Nc1ccc(C(=O)c2ccccc2)cc1
T/C endpoint: mean survival time, dose: 150.0 mg/kg/injection, schedule: Q01DX001 (ip), vehicle: acetone
  survivor count: 6 of 6

## Nc1ncnc2c1c(-c1nn[nH]n1)cn2C1OC(CO)C(O)C1O (stereo not given)
T/C endpoint: mean survival time, dose: 12.5 mg/kg/injection, schedule: Q01DX009 (ip), vehicle: saline
  T/C: 127 % of control
T/C endpoint: mean survival time, dose: 25.0 mg/kg/injection, schedule: Q01DX005 (ip), vehicle: saline
  T/C: 128 % of control
T/C endpoint: mean survival time, dose: 25.0 mg/kg/injection, schedule: Q01DX009 (ip), vehicle: saline
  T/C: 128 and 134 % of control
T/C endpoint: mean survival time, dose: 100.0 mg/kg/injection, schedule: Q01DX005 (ip), vehicle: saline
  survivor count: 3 of 6
T/C endpoint: mean survival time, dose: 200.0 mg/kg/injection, schedule: Q01DX005 (ip), vehicle: saline
  survivor count: 0 of 6
